Reference: patent publication US11235066B2 (THE REGENTS OF THE UNIVERSITY OF MICHIGAN, priority 2015, dated 2022)

Test: general procedure: Fmoc solid-phase peptide synthesis; Rink amide MBHA resin; HBTU, HOBt
Conditions: whole synthesis, analytical HPLC, scale ~0.06 mmol

## LTTHYKL-GGGSK
  final HPLC purity: >95%
